ChEMBL document CHEMBL4316593 (Eur J Med Chem, 2019)
This continues a long series; more values of the same kind are listed elsewhere.

Legend:
Assay type in all cases: cell-based
Details in all cases: U-87MG ATCC
[1] = Inhibition of RTK/PI3K/AKT/mTOR signaling in human U87 cells assessed as down regulation of NFE2L2 gene expression at cytotoxic IC50 measured after 48 hrs relative to control
[2] = Inhibition of RTK/PI3K/AKT/mTOR signaling in human U87 cells assessed as down regulation of CTGF gene expression at cytotoxic IC50 measured after 48 hrs relative to control
[3] = Inhibition of RTK/PI3K/AKT/mTOR signaling in human U87 cells assessed as up regulation of RAD23B gene expression at cytotoxic IC50 measured after 48 hrs relative to control
[4] = Inhibition of RTK/PI3K/AKT/mTOR signaling in human U87 cells assessed as up regulation of bone morphogenetic protein 4 gene expression at cytotoxic IC50 measured after 48 hrs relative to control
[5] = Inhibition of RTK/PI3K/AKT/mTOR signaling in human U87 cells assessed as up regulation of adhesion G protein-coupled receptor E5 gene expression at cytotoxic IC50 measured after 48 hrs relative to control
[6] = Inhibition of RTK/PI3K/AKT/mTOR signaling in human U87 cells assessed as up regulation of Rho guanine nucleotide exchange factor 19 gene expression at cytotoxic IC50 measured after 48 hrs relative to control
[7] = Inhibition of RTK/PI3K/AKT/mTOR signaling in human U87 cells assessed as down regulation of CSNK1G1 gene expression at cytotoxic IC50 measured after 48 hrs relative to control
[8] = Inhibition of RTK/PI3K/AKT/mTOR signaling in human U87 cells assessed as down regulation of STRIP1 gene expression at cytotoxic IC50 measured after 48 hrs relative to control
[9] = Inhibition of RTK/PI3K/AKT/mTOR signaling in human U87 cells assessed as down regulation of S100A10 gene expression at cytotoxic IC50 measured after 48 hrs relative to control
[10] = Inhibition of RTK/PI3K/AKT/mTOR signaling in human U87 cells assessed as up regulation of phosphoribosylglycinamide formyltransferase, phosphoribosylglycinamide synthetase, phosphoribosylaminoimidazole synthetase gene expression at cytotoxic IC50 measured after 48 hrs relative to control
[11] = Inhibition of RTK/PI3K/AKT/mTOR signaling in human U87 cells assessed as down regulation of FARP1 gene expression at cytotoxic IC50 measured after 48 hrs relative to control
[12] = Inhibition of RTK/PI3K/AKT/mTOR signaling in human U87 cells assessed as down regulation of STX12 gene expression at cytotoxic IC50 measured after 48 hrs relative to control
[13] = Inhibition of RTK/PI3K/AKT/mTOR signaling in human U87 cells assessed as down regulation of UHRF1BP1 gene expression at cytotoxic IC50 measured after 48 hrs relative to control
[14] = Inhibition of RTK/PI3K/AKT/mTOR signaling in human U87 cells assessed as down regulation of UBOX5 gene expression at cytotoxic IC50 measured after 48 hrs relative to control
[15] = Inhibition of RTK/PI3K/AKT/mTOR signaling in human U87 cells assessed as up regulation of CHST1 gene expression at cytotoxic IC50 measured after 48 hrs relative to control
[16] = Inhibition of RTK/PI3K/AKT/mTOR signaling in human U87 cells assessed as down regulation of PLPBP gene expression at cytotoxic IC50 measured after 48 hrs relative to control
[17] = Inhibition of RTK/PI3K/AKT/mTOR signaling in human U87 cells assessed as down regulation of ZNF596 gene expression at cytotoxic IC50 measured after 48 hrs relative to control
[18] = Inhibition of RTK/PI3K/AKT/mTOR signaling in human U87 cells assessed as up regulation of SEH1 like nucleoporin gene expression at cytotoxic IC50 measured after 48 hrs relative to control
[19] = Inhibition of RTK/PI3K/AKT/mTOR signaling in human U87 cells assessed as down regulation of SPDL1 gene expression at cytotoxic IC50 measured after 48 hrs relative to control
[20] = Inhibition of RTK/PI3K/AKT/mTOR signaling in human U87 cells assessed as down regulation of ELP4 gene expression at cytotoxic IC50 measured after 48 hrs relative to control
[21] = Inhibition of RTK/PI3K/AKT/mTOR signaling in human U87 cells assessed as down regulation of HSPD1 gene expression at cytotoxic IC50 measured after 48 hrs relative to control
[22] = Inhibition of RTK/PI3K/AKT/mTOR signaling in human U87 cells assessed as up regulation of biorientation of chromosomes in cell division 1 gene expression at cytotoxic IC50 measured after 48 hrs relative to control
[23] = Inhibition of RTK/PI3K/AKT/mTOR signaling in human U87 cells assessed as down regulation of KLHL18 gene expression at cytotoxic IC50 measured after 48 hrs relative to control
[24] = Inhibition of RTK/PI3K/AKT/mTOR signaling in human U87 cells assessed as down regulation of MUL1 gene expression at cytotoxic IC50 measured after 48 hrs relative to control
[25] = Inhibition of RTK/PI3K/AKT/mTOR signaling in human U87 cells assessed as up regulation of VSIR gene expression at cytotoxic IC50 measured after 48 hrs relative to control
[26] = Inhibition of RTK/PI3K/AKT/mTOR signaling in human U87 cells assessed as down regulation of MYL12B gene expression at cytotoxic IC50 measured after 48 hrs relative to control
[27] = Inhibition of RTK/PI3K/AKT/mTOR signaling in human U87 cells assessed as up regulation of N-acetyltransferase 14 (putative) gene expression at cytotoxic IC50 measured after 48 hrs relative to control
[28] = Inhibition of RTK/PI3K/AKT/mTOR signaling in human U87 cells assessed as down regulation of EXOC8 gene expression at cytotoxic IC50 measured after 48 hrs relative to control
[29] = Inhibition of RTK/PI3K/AKT/mTOR signaling in human U87 cells assessed as down regulation of ZNF222 gene expression at cytotoxic IC50 measured after 48 hrs relative to control
[30] = Inhibition of RTK/PI3K/AKT/mTOR signaling in human U87 cells assessed as down regulation of BAK1 gene expression at cytotoxic IC50 measured after 48 hrs relative to control
[31] = Inhibition of RTK/PI3K/AKT/mTOR signaling in human U87 cells assessed as up regulation of PDK1 gene expression at cytotoxic IC50 measured after 48 hrs relative to control
[32] = Inhibition of RTK/PI3K/AKT/mTOR signaling in human U87 cells assessed as down regulation of EPDR1 gene expression at cytotoxic IC50 measured after 48 hrs relative to control

`CC(=O)C(=NNc1ccccc1C#N)C(C)=O` showed a log2FC [1] of -0.89, a log2FC [2] of -2.91 and a log2FC [3] of 0.489. It also gave a log2FC [4] of 1.55, a log2FC [5] of 1.24 and a log2FC [6] of 1.44. For the same molecule, the log2FC [7] was -0.555, the log2FC [8] was -0.856 and the log2FC [9] was -0.47. The log2FC [10] was 0.736, the log2FC [11] was -0.732 and the log2FC [12] was -0.726. For the same molecule, the log2FC [13] was -0.561, the log2FC [14] was -0.954 and the log2FC [15] was 2.28. It also gave a log2FC [16] of -1.11, a log2FC [17] of -2.18 and a log2FC [18] of 0.648. The log2FC [19] was -0.856, the log2FC [20] was -1.02 and the log2FC [21] was -0.321. The log2FC [22] was 0.701, the log2FC [23] was -0.74 and the log2FC [24] was -0.729. For the same molecule, the log2FC [25] was 2.25, the log2FC [26] was -0.377 and the log2FC [27] was 1.03. It also gave a log2FC [28] of -1.04, a log2FC [29] of -1.59 and a log2FC [30] of -1.19. For the same molecule, the log2FC [31] was 2.17 and the log2FC [32] was -1.76.
